The supplement of paper PMC6411743
± gives the standard deviation of the averaged measurements. The entries are a selection whose mix differs from that of the whole data set.

How the values were obtained:
Assay in all cases: NP40-soluble protein abundance relative to vehicle (solubility fold change) (ratio); higher = more soluble protein in presence of AMP-PNP
[1] = target: T1, UniProt Q9UPU7 and related entries
T1 sequence (whole entry): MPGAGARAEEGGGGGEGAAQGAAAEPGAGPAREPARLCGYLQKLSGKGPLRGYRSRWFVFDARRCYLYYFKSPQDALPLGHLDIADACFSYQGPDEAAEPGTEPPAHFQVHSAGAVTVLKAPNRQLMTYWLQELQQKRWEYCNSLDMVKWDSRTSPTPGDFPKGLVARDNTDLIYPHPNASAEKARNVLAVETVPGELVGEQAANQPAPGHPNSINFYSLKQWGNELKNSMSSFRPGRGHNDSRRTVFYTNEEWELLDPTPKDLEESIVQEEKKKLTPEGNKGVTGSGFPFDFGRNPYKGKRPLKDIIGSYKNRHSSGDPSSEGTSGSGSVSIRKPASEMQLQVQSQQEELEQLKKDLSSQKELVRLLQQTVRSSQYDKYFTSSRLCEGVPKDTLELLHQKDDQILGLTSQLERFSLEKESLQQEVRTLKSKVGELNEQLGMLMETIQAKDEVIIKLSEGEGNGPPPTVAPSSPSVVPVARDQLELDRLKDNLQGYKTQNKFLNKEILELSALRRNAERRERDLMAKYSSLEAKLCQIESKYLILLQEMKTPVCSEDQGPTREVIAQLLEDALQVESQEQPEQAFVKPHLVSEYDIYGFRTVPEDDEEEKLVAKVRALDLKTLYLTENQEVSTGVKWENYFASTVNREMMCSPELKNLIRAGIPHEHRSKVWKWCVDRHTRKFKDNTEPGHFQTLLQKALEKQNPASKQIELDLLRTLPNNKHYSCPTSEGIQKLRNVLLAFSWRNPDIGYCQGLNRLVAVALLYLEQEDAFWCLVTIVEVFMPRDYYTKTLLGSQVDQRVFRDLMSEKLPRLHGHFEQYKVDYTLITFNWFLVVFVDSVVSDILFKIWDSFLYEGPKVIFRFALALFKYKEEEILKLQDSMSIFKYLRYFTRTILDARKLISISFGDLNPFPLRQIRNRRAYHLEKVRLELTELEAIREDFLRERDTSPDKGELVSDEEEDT
Method in brief: (§1)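 Across three independent experiments, values are fold changes against the detergent-processed vehicle for each replicate, based on vsn-normalised intensities. The samples were Jurkat crude lysate treated with eight concentrations (0.1 to 10 mM) for 10 min at room temperature and then 3 min at 37 °C. Lysate was solubilised with 0.8% NP40 and benzonase, ultracentrifuged, and the supernatant analysed by TMT-labelled LC-MS/MS.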

[2] = target: T2, UniProt Q9Y232 and related entries
T2 sequence (whole entry): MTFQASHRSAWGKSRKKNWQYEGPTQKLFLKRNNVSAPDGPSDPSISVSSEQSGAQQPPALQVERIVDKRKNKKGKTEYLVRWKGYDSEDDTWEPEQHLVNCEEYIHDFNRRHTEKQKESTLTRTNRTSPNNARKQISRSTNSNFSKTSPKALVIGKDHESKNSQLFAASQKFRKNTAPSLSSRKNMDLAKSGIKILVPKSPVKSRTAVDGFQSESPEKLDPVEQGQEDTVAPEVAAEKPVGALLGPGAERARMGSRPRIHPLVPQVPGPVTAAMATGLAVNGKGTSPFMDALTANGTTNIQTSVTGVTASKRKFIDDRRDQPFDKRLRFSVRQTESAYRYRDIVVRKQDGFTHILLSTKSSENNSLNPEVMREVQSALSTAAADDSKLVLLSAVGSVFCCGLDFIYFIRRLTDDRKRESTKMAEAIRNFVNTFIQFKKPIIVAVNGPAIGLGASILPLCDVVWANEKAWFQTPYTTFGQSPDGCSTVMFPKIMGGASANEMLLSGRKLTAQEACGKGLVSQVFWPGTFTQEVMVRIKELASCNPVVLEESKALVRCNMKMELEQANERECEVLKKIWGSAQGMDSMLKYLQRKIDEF
Method in brief: as §1

[3] = target: T3, UniProt Q9Y2K1 and related entries
T3 sequence (whole entry): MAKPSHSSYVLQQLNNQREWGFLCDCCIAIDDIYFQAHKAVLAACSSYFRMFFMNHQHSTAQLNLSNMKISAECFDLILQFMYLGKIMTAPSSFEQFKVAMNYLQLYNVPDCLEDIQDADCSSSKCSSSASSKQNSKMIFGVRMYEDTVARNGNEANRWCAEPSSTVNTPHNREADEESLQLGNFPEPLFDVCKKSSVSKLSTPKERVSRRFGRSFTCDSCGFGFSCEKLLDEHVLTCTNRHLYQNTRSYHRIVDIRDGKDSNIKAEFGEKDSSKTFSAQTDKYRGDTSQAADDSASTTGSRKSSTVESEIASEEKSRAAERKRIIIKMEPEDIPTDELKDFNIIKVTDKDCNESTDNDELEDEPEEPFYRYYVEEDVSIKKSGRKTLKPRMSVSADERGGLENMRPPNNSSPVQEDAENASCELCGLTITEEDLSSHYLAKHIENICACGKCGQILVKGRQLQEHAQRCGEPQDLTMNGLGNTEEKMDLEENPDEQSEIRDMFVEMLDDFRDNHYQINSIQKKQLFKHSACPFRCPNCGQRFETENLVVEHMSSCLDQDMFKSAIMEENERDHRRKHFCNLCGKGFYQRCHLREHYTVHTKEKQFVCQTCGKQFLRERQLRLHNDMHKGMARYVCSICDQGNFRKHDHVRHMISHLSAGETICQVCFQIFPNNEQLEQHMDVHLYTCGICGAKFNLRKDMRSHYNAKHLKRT
Method in brief: as §1

[4] = target: T4, UniProt Q9Y312 and related entries
T4 sequence (whole entry): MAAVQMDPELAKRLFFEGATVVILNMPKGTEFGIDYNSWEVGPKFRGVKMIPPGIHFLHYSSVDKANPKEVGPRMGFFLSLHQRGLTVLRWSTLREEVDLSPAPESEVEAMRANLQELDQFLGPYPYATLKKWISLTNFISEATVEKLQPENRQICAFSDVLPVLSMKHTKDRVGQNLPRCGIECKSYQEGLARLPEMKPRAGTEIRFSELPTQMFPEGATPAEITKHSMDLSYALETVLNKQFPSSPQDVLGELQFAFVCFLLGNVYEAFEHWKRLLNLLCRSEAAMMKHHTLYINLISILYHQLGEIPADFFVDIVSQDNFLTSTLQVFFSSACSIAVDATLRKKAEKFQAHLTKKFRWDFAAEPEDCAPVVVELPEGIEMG
Method in brief: as §1

[5] = target: T5, UniProt Q9Y394 and related entries
T5 sequence (whole entry): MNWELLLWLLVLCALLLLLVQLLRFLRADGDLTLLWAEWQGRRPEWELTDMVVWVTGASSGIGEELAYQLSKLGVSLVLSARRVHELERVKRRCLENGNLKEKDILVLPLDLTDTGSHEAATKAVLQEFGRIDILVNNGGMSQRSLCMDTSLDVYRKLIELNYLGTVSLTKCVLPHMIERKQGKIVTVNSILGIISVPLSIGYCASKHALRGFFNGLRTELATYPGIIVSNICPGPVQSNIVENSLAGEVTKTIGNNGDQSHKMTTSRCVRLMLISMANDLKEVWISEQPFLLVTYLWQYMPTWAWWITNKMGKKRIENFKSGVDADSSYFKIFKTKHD
Method in brief: as §1

Nc1ncnc2c1ncn2[C@@H]1O[C@H](COP(=O)(O)OP(=O)(O)NP(=O)(O)O)[C@@H](O)[C@H]1O [adenylyl imidodiphosphate]
NP40-soluble protein abundance ([1]; concentration: 2mM): 1.03 ± 0.046
NP40-soluble protein abundance ([1]; concentration: 4mM): 0.989 ± 0.038
NP40-soluble protein abundance ([1]; concentration: 6mM): 1.02 ± 0.042
NP40-soluble protein abundance ([1]; concentration: 8mM): 0.96 ± 0.033
NP40-soluble protein abundance ([1]; concentration: 10mM): 1.04 ± 0.098
NP40-soluble protein abundance ([2]; concentration: 1mM): 0.927 ± 0.055
NP40-soluble protein abundance ([2]; concentration: 2mM): 0.931 ± 0.016
NP40-soluble protein abundance ([2]; concentration: 4mM): 0.977 ± 0.031
NP40-soluble protein abundance ([2]; concentration: 6mM): 0.979 ± 0.025
NP40-soluble protein abundance ([2]; concentration: 8mM): 1.01 ± 0.081
NP40-soluble protein abundance ([2]; concentration: 10mM): 0.97 ± 0.037
NP40-soluble protein abundance ([3]; concentration: 1mM): 1.01 ± 0.053
NP40-soluble protein abundance ([3]; concentration: 2mM): 1.027 ± 0.0057
NP40-soluble protein abundance ([3]; concentration: 4mM): 1.04 ± 0.11
NP40-soluble protein abundance ([3]; concentration: 6mM): 0.983 ± 0.034
NP40-soluble protein abundance ([3]; concentration: 8mM): 0.993 ± 0.092
NP40-soluble protein abundance ([3]; concentration: 10mM): 0.996 ± 0.066
NP40-soluble protein abundance ([4]; concentration: 1mM): 0.97 ± 0.073
NP40-soluble protein abundance ([4]; concentration: 2mM): 0.948 ± 0.088
NP40-soluble protein abundance ([4]; concentration: 4mM): 0.943 ± 0.054
NP40-soluble protein abundance ([4]; concentration: 6mM): 0.893 ± 0.082
NP40-soluble protein abundance ([4]; concentration: 8mM): 0.885 ± 0.066
NP40-soluble protein abundance ([4]; concentration: 10mM): 0.889 ± 0.078
NP40-soluble protein abundance ([5]; concentration: 1mM): 0.976 ± 0.059
NP40-soluble protein abundance ([5]; concentration: 2mM): 0.947 ± 0.031
NP40-soluble protein abundance ([5]; concentration: 4mM): 0.943 ± 0.063
NP40-soluble protein abundance ([5]; concentration: 6mM): 0.942 ± 0.026
NP40-soluble protein abundance ([5]; concentration: 8mM): 0.976 ± 0.044
NP40-soluble protein abundance ([5]; concentration: 10mM): 0.948 ± 0.038
